Measured data: PubChem BioAssay AID1259425 (University of Nebraska Medical Center, 2018)

Aim: 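Seek colon cancer weak points whose silencing resembles KSR1 loss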 (primary screen)
Cells: HCT116 human colon cancer cells
Reagents: siRNA pool against human genes, 50 nM siRNA
Detection: 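After 50 nM siRNA pool, branched-DNA assay measures six marker transcripts per well, minus blank, normalised to the geometric mean of two housekeeping transcripts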
Scale: BNIP3L mRNA: higher = more BNIP3L transcript after knockdown; NDRG1 mRNA: higher = more NDRG1 transcript after knockdown; BNIP3 mRNA: higher = more BNIP3 transcript after knockdown; ALDOC mRNA: higher = more ALDOC transcript after knockdown; ACSL5 mRNA: higher = more ACSL5 transcript after knockdown
In all, the deposit lists about 14,000 reagents; below is a part drawn at random. Reagents against one gene are numbered here. Some reagents were tested in more than one well and are listed for each. Reagent sequences are not shown. Not given: the time to read-out.

no.	Gene	reagent	BNIP3L mRNA, set 1	NDRG1 mRNA, set 1	BNIP3 mRNA, set 1	ALDOC mRNA, set 1	ACSL5 mRNA, set 1
1	CCDC69	1	0.0696	0.351	0.572	0.0231	0.294
2	HAND2	1	0.0866	0.0768	0.331	0.00227	0.0955
3	KRTAP3-2	1	0.388	0.625	0.364	0.153	0.559
4	WDCP	1	0.135	0.115	0.329	0.0333	0.117
5	CLEC2D	1	0.113	0.399	0.297	0.0277	0.362
6	SOX30	1	0.143	0.29	0.324	0.0302	0.143
7	GRHL2	1	0.0703	1.33	0.39	0.0392	0.24
8	SETD2	1	0.124	0.0648	0.317	0.0128	0.0652
9	PARP1	1	0.0662	0.205	0.315	0.0314	0.123
10	GNG4	1	0.0919	0.0908	0.363	0.0133	0.136
11	SLC2A11	1	2.5	7.23	4.27	0.637	0.279
12	CHST8	1	0.113	0.175	0.302	0.0226	0.212
13	CST8	1	0.113	0.178	0.338	0.059	0.102
14	DCAKD	1	0.237	0.259	0.209	0.0574	0.34
15	CHM	1	0.036	0.102	0.191	0.0193	0.0944
16	CHM	2	0.0535	0.231	0.342	0.0133	0.126
17	DUS4L	1	0.0615	0.333	0.116	0.0403	0.155
18	CLPB	1	0.229	0.288	0.468	0.0305	0.274
19	KAT14	1	0.171	0.419	0.389	0.0389	0.269
20	RBP3	1	0.0786	0.356	0.149	0.0458	0.154
21	HYAL3	1	0.091	0.185	0.246	0.0189	0.152
22	HERPUD2	1	0.133	0.309	0.457	0.0242	0.189
23	ADH5P4	1	0.0781	0.568	0.3	0.0366	0.173
24	TUSC3	1	0.121	0.0789	0.261	0.0227	0.126
25	NCLN	1	0.217	0.128	0.156	0.142	0.527
26	PCK1	1	0.0763	0.19	0.269	0.000162	0.224
27	GRK2	1	0.188	0.426	0.356	0.00411	0.342
28	GRK2	1	0.142	0.413	0.358	0.0181	0.197

Next part (9 carried over from the part before).
no.	Gene	reagent	BNIP3L mRNA, set 1	NDRG1 mRNA, set 1	BNIP3 mRNA, set 1	ALDOC mRNA, set 1	ACSL5 mRNA, set 1
20	RBP3	1	0.0786	0.356	0.149	0.0458	0.154
21	HYAL3	1	0.091	0.185	0.246	0.0189	0.152
22	HERPUD2	1	0.133	0.309	0.457	0.0242	0.189
23	ADH5P4	1	0.0781	0.568	0.3	0.0366	0.173
24	TUSC3	1	0.121	0.0789	0.261	0.0227	0.126
25	NCLN	1	0.217	0.128	0.156	0.142	0.527
26	PCK1	1	0.0763	0.19	0.269	0.000162	0.224
27	GRK2	1	0.188	0.426	0.356	0.00411	0.342
28	GRK2	1	0.142	0.413	0.358	0.0181	0.197
29	ZNF44	1	0.0388	0.0517	0.383	0.00869	0.165
30	CLTA	1	0.107	0.153	0.365	0.0139	0.355
31	MBD5	1	0.0654	0.0953	0.249	0.0159	0.137
32	HOXA13	1	0.125	0.0663	0.308	0.0239	0.19
33	GTPBP6	1	0.112	0.245	0.245	0.0145	0.124
34	HLA-DQA1	1	0.117	0.129	0.194	0.0285	0.0449
35	OXSM	1	0.0733	0.0897	0.346	0.00974	0.0631
36	DLG2	1	0.105	0.176	0.343	0.0122	0.112
37	DOK1	1	0.101	0.836	0.278	0.014	0.583
38	MYLK	1	0.128	0.172	0.456	0.00431	0.213
39	GPR19	1	0.208	0.563	0.556	0.0571	0.413
40	UTP15	1	0.299	0.449	0.352	0.0716	0.555
41	TMEM63C	1	0.205	0.169	0.17	0.0528	0.224
42	SF3B2	1	0.128	0.365	0.13	0.00206	0.0948
43	PCSK2	1	0.249	0.402	0.553	0.0621	0.189
44	CGA	1	0.128	0.235	0.288	0.119	0.355
45	SUSD2	1	0.121	0.144	0.535	0.0804	0.265
46	TYR	1	0.128	0.328	0.271	0.0537	0.232
47	LRFN3	1	0.109	0.208	0.345	0.0334	0.119
48	SPOCK2	1	0.154	0.0768	0.154	0.0236	0.189
49	RPRM	1	0.177	0.0942	0.352	0.0304	0.177
50	ENO2	1	0.0895	0.207	0.357	0.0108	0.143
51	ALDH1B1	1	0.0746	0.17	0.297	0.00662	0.131
52	NOD2	1	0.108	0.143	0.303	0.0108	0.199
53	FKBP7	1	0.139	0.221	0.401	0.0299	0.221
54	PTGDR2	1	0.194	0.195	0.33	0.072	0.145
55	MSRA	1	0.0757	0.184	0.242	0.0393	0.129
56	ARCN1	1	0.736	1.65	0.816	0.048	0.297
57	OLA1	1	0.128	0.0822	0.327	0.0277	0.196
58	COL27A1	1	0.13	0.488	0.254	0.022	0.327
59	ATP6V0E1	1	0.0984	1.05	0.324	0.0188	0.26
60	FBXL20	1	0.0864	0.482	0.225	0.0395	0.247
61	PROK2	1	0.0701	0.0352	0.276	0.00766	0.136
62	GUCA2B	1	0.0799	0.0766	0.108	0.0129	0.0663
63	NAGK	1	0.158	0.0655	0.547	0.00616	0.315
